Literature values as cited in patent US20220331448A1, “COMPOSITIONS AND METHODS FOR TREATING SUCCINIC SEMIALDEHYDE DEHYDROGENASE DEFICIENCY (SSADHD)” (Washington State University, priority 2018, published 2022).
At least one compound was matched to its structure with a doubt left.

Tests used:
[1] = aldh5a1−/− mice; cited from earlier work
aldh5a1−/− mice = details: brain and liver; cited from earlier work

## CCn1c(=O)c(-c2cc[nH]n2)cc2c(C)nc(N)nc21 [XL765]
[1]
  body weight over 35 days until sacrifice at DOL 50: modest weight improvement

## CO[C@H]1C[C@@H]2CC[C@@H](C)[C@@](O)(O2)C(=O)C(=O)N2CCCC[C@H]2C(=O)O[C@H]([C@H](C)C[C@@H]2CC[C@@H](O)[C@H](OC)C2)CC(=O)[C@H](C)/C=C(\C)[C@@H](O)[C@@H](OC)C(=O)[C@H](C)C[C@H](C)/C=C/C=C/C=C/1C [rapamycin]
aldh5a1−/− mice
  increased mitochondrial numbers and enhanced oxidant stress: normalized
